No constants are given. Whether binding was seen depends on the method and setting. In cells and extracts the contact can be indirect. Some entries that bind do so weakly or less than the wild type.
Molecular target: cyclin D1/Cdk4 (transfected 293T cell extracts) (UniProt P24385)
Test: GST pull-down with cyclin D1/Cdk4 transfected 293T extracts (FIG. 4E)

Amino acid sequences for entries named in this document (tags omitted). A change or cut given only in a name is not applied to a line headed by its entry.
UniProt P24385: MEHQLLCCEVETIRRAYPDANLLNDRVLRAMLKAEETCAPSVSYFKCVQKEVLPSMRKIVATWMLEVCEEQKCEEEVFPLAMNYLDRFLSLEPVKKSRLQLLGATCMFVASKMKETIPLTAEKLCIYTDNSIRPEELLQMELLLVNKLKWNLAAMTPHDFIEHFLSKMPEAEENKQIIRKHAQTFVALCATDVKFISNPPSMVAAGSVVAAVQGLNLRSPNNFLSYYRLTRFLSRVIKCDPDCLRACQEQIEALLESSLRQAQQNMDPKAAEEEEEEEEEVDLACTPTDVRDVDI
UniProt P46527: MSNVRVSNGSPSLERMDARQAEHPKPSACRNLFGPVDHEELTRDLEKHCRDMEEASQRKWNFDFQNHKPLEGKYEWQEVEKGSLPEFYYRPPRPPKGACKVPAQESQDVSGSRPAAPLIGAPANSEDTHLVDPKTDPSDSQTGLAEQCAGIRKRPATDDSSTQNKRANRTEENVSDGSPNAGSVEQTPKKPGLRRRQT

binding: binds
Substance: GST-p27 (p27 cDNA cloned into pGEX-2T) (from UniProt P46527 1-198)

Reference: patent US8173604
